Data taken from the supplement of paper PMC12819154, “High-throughput peptide-centric local stability assay extends protein–ligand identification to membrane proteins, tissues and bacteria” (Nature Structural & Molecular Biology, 2025).
Some of the results follow. Most values lie at the level of the controls, where differences are scatter.

Amino acid sequences for entries named in this document (tags omitted). A change or cut given only in a name is not applied to a line headed by its entry.
UniProt P50539: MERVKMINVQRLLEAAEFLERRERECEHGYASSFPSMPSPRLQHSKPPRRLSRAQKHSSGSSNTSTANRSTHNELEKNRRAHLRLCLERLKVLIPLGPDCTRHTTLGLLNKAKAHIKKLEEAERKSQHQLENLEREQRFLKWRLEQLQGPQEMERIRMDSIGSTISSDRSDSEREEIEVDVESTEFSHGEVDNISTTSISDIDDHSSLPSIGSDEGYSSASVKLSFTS
UniProt P49916: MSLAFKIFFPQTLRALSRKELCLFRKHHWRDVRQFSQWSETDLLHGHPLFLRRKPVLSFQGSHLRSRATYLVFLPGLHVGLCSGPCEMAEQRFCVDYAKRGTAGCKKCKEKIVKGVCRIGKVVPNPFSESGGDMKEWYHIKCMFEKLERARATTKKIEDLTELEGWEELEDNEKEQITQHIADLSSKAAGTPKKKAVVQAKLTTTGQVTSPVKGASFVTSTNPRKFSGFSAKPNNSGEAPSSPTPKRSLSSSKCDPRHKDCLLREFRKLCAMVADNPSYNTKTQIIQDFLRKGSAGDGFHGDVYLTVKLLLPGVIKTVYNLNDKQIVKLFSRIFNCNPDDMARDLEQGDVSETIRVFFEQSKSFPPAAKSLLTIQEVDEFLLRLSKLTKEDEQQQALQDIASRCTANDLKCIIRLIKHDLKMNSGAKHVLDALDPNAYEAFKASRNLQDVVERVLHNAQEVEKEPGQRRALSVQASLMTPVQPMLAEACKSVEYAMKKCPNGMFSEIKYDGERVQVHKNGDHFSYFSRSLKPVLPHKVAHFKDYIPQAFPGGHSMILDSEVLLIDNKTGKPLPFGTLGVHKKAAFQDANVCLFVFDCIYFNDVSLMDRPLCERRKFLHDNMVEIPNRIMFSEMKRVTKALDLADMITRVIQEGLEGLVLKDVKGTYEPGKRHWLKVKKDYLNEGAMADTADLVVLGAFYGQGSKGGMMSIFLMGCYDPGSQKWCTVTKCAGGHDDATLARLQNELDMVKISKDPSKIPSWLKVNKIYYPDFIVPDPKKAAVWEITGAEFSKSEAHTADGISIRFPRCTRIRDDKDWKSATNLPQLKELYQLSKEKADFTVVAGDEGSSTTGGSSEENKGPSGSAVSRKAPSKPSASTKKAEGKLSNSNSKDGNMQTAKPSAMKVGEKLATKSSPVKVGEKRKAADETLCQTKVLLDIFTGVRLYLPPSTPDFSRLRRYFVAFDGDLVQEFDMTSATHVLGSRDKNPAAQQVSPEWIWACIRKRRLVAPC
UniProt P48735: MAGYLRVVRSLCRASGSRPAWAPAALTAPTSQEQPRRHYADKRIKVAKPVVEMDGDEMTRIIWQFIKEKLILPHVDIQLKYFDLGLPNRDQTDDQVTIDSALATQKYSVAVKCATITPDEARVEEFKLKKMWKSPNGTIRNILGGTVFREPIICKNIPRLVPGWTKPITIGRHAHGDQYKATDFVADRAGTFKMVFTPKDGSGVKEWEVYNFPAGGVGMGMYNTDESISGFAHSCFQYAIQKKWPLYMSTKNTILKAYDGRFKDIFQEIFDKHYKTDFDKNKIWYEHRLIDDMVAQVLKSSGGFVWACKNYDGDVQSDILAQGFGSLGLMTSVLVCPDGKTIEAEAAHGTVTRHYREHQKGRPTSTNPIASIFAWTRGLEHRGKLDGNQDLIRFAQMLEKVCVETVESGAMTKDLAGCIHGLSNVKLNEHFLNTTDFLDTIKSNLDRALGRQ
UniProt P49326: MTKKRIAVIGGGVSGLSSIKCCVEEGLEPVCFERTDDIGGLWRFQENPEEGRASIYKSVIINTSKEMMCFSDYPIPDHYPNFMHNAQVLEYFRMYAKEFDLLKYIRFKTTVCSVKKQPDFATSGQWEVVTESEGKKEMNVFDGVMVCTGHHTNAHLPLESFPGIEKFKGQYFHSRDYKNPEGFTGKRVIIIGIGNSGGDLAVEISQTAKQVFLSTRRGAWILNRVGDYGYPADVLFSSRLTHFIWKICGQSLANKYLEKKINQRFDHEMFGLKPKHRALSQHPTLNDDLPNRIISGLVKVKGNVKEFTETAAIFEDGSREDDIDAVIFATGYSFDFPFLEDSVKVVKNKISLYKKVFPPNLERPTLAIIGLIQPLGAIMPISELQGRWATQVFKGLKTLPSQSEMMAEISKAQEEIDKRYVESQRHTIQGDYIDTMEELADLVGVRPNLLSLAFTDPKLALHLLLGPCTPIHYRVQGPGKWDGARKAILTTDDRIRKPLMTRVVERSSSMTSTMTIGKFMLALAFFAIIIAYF
UniProt P51003: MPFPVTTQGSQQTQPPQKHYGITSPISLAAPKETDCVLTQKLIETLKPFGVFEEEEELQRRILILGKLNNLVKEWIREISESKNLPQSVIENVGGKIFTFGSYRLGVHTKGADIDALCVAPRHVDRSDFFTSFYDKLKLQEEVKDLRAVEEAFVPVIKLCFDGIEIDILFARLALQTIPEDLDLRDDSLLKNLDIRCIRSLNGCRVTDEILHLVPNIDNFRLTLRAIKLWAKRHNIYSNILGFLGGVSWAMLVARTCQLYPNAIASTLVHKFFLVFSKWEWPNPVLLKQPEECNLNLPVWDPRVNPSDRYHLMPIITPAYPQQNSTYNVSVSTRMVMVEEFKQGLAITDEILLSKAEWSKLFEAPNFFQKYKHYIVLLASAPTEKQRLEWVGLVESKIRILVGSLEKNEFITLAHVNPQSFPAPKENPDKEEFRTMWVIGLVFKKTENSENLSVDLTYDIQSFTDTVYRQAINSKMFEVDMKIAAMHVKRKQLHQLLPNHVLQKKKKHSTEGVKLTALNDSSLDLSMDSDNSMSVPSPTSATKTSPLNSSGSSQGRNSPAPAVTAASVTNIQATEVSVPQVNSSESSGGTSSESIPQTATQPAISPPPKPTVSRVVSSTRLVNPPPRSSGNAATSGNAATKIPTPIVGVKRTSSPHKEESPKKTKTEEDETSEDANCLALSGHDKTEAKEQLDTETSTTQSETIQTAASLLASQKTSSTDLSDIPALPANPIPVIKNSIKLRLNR
UniProt P51452: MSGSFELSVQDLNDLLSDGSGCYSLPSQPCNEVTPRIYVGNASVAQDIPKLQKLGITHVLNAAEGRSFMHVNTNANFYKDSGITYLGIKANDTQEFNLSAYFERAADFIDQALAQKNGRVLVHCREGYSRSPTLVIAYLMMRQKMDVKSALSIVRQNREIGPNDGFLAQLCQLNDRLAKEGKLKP
UniProt P51397: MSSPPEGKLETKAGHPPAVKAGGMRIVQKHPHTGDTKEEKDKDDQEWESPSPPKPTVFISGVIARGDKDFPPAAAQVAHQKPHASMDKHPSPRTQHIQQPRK
UniProt P46976: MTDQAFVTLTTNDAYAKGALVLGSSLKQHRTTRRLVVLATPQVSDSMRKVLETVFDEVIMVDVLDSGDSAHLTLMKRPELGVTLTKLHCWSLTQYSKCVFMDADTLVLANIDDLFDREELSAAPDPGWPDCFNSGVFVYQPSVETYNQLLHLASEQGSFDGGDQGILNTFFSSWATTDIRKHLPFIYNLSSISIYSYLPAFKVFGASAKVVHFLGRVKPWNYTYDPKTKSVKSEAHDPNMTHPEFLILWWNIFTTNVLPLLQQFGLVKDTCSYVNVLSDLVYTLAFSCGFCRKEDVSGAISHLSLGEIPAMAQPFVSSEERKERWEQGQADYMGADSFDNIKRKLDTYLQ
UniProt P50748: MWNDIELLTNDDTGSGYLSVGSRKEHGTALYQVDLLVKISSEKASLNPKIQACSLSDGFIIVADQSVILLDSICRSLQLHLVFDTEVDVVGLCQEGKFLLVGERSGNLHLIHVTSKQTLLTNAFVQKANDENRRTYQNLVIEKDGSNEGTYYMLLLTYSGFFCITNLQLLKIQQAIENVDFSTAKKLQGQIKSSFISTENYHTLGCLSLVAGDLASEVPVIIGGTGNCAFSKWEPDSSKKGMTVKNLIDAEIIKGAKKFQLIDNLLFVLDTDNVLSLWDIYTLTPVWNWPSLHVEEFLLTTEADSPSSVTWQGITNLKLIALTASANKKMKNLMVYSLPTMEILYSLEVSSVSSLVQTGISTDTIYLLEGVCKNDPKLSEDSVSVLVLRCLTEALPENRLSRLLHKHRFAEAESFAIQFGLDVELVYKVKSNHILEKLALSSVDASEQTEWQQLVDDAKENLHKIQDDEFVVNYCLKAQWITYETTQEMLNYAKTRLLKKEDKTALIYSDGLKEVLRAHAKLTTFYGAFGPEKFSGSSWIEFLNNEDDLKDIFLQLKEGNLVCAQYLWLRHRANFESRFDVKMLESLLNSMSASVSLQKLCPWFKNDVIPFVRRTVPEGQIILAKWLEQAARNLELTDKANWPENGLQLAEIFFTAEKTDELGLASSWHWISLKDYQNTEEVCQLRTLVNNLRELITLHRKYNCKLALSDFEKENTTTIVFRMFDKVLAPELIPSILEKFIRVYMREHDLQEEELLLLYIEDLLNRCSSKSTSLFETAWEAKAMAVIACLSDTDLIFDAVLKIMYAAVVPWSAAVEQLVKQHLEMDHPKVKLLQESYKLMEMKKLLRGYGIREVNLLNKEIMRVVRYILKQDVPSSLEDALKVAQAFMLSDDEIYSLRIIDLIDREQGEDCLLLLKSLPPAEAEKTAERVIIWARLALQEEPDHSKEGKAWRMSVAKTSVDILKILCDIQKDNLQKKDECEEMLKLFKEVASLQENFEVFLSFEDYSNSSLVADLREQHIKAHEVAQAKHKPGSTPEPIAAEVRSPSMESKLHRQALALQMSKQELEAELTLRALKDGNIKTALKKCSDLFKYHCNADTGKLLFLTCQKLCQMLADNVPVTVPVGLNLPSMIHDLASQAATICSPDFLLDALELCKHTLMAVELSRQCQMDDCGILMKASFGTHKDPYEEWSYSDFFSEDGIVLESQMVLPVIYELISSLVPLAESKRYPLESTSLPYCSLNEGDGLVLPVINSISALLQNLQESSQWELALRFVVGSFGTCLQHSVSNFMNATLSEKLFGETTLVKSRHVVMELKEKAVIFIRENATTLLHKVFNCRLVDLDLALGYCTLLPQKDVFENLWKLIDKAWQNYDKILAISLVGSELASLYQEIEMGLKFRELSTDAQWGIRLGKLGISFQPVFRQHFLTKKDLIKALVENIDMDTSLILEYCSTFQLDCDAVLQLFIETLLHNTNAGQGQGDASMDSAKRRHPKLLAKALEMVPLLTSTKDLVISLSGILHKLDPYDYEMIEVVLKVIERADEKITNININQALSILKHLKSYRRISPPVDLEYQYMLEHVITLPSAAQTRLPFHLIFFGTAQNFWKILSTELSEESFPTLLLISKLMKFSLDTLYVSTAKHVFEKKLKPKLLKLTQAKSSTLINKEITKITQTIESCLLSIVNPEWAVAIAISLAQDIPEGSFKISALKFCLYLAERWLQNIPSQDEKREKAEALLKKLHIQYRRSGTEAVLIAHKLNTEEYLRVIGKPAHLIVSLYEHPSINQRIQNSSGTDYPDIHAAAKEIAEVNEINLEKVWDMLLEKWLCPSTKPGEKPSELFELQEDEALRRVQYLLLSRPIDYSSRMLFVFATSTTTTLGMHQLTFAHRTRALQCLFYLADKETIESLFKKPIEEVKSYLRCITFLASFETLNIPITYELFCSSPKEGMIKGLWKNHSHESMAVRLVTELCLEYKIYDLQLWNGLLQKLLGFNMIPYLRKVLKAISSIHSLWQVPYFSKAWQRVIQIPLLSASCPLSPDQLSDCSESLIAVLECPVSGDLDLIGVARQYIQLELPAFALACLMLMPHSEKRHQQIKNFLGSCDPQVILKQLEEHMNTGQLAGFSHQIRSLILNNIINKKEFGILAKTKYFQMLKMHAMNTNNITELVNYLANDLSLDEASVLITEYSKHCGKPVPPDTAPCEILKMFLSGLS
UniProt P50135: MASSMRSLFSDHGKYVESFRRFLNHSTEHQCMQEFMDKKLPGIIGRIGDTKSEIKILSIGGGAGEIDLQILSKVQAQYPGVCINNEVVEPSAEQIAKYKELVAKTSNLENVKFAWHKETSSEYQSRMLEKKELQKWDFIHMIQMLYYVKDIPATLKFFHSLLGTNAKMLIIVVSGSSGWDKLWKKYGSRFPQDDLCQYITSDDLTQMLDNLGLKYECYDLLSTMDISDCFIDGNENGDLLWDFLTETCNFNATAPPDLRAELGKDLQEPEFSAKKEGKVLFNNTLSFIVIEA
UniProt P54578: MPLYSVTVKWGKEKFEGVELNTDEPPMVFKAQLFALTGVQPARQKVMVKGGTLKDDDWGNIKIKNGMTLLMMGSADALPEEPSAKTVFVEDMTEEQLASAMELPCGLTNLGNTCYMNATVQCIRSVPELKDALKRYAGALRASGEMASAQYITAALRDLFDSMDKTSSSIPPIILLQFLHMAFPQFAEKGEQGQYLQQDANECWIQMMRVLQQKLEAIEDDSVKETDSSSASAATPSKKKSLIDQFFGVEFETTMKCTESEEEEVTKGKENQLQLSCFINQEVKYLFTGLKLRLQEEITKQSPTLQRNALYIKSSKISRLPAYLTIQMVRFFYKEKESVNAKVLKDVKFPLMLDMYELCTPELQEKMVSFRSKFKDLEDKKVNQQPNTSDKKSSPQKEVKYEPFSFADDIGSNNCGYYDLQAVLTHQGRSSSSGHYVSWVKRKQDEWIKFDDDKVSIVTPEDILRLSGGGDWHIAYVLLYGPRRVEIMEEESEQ

Compound: CN[C@@H]1C[C@H]2O[C@@](C)([C@@H]1OC)n1c3ccccc3c3c4c(c5c6ccccc6n2c5c31)C(=O)NC4 [staurosporine]
Assay: log2 fold change of tryptic peptide abundance, ligand vs vehicle (limited proteolysis) (log2 ratio); higher = more trypsin-susceptible (destabilized)
Conditions: ligand concentration: 20 uM; sample: K562 cleared lysate; digestion: 4 min, 22 C (HT-PELSA RT4min, Orbitrap Astral)

Target	log2 fold change
UniProt P50539 (peptide sequence: STHNELEK, peptide start residue: 70)	0.517
POLD2 (peptide sequence: VPVATYTNSSQPFR, peptide start residue: 27) (UniProt P49005)	0.269
LIG3 (peptide sequence: LTTTGQVTSPVK, peptide start residue: 202) (UniProt P49916)	0.295
PSMD8 (peptide sequence: LVLLELNFLPTTGTK, peptide start residue: 121) (UniProt P48556)	-0.242
NUP98 (peptide sequence: KAEVTLDGVWPTDKTSR, peptide start residue: 818) (UniProt P52948)	0.168
DNM2 (peptide sequence: RPVSSIHPPGRPPAVR, peptide start residue: 770) (UniProt P50570)	0.15
RPL27A (peptide sequence: NQSFCPTVNLDKLWTLVSEQTR, peptide start residue: 66) (UniProt P46776)	-0.305
UniProt P48634 (peptide sequence: AVGTPGGGGGGAVPGISAMSR, peptide start residue: 1350)	-0.247
ACLY (peptide sequence: TASFSESR, peptide start residue: 453) (UniProt P53396)	-0.129
TRAPPC10 (peptide sequence: AHSSVDWLIVIVENDAK, peptide start residue: 117) (UniProt P48553)	0.643
UniProt P49720 (peptide sequence: LYIGLAGLATDVQTVAQR, peptide start residue: 49)	-0.318
IDH2 (peptide sequence: IKVAKPVVEMDGDEMTR, peptide start residue: 44) (UniProt P48735)	0.334
UniProt P49326 (peptide sequence: KINQRFDHEMFGLK, peptide start residue: 260)	0.0649
VPS41 (peptide sequence: DSTHCPLEK, peptide start residue: 634) (UniProt P49754)	0.692
PMS1 (peptide sequence: GEALGSICCIAEVLITTR, peptide start residue: 94) (UniProt P54277)	0.73
RAB28 (peptide sequence: LNKAEIEQSQR, peptide start residue: 182) (UniProt P51157)	0.544
RXRG (peptide sequence: ILEAELAVEPK, peptide start residue: 235) (UniProt P48443)	-0.238
UniProt P51784 (peptide sequence: QAWSGHHR, peptide start residue: 368)	0.488
UniProt P49459 (peptide sequence: RVSAIVEQSWR, peptide start residue: 140)	-0.139
UniProt P51523 (peptide sequence: LYECSECR, peptide start residue: 206)	-0.174
MAP1B (peptide sequence: ASTTLDIKDSISAVSSEK, peptide start residue: 1233) (UniProt P46821)	-0.323

Target	log2 fold change
UniProt P51955 (peptide sequence: SDGGHTVLHR, peptide start residue: 131)	1.05
CRKL (peptide sequence: HGMFLVR, peptide start residue: 33) (UniProt P46109)	0.22
RPS5 (peptide sequence: KKDELER, peptide start residue: 192) (UniProt P46782)	0.192
MTHFS (peptide sequence: LRAMSAEER, peptide start residue: 21) (UniProt P49914)	0.541
ETV1 (peptide sequence: TEGCMFEKGPR, peptide start residue: 289) (UniProt P50549)	0.674
CLNS1A (peptide sequence: DRSDCLGEHLYVMVNAK, peptide start residue: 69) (UniProt P54105)	-0.196
SEC24C (peptide sequence: LRIHNLALNCCTQLADLYR, peptide start residue: 822) (UniProt P53992)	-0.658
CDC34 (peptide sequence: WNPTQNVR, peptide start residue: 114) (UniProt P49427)	0.126
RCAN1 (peptide sequence: VFVDGLCR, peptide start residue: 77) (UniProt P53805)	0.222
STAT5B (peptide sequence: ATQLLEGLVQELQK, peptide start residue: 57) (UniProt P51692)	0.11
UniProt P48201 (peptide sequence: LACTPSLIR, peptide start residue: 7)	0.395
ZNF131 (peptide sequence: SHSTESFKCEICNKR, peptide start residue: 282) (UniProt P52739)	-0.435
POLG (peptide sequence: RPQHLPGHPGWYR, peptide start residue: 562) (UniProt P54098)	-0.352
COPB1 (peptide sequence: AKSQGMALSLGDK, peptide start residue: 931) (UniProt P53618)	0.716
PAPOLA (peptide sequence: YKHYIVLLASAPTEK, peptide start residue: 371) (UniProt P51003)	-0.326
DUSP3 (peptide sequence: AADFIDQALAQK, peptide start residue: 105) (UniProt P51452)	0.112
ATRX (peptide sequence: EKTEDKDK, peptide start residue: 2060) (UniProt P46100)	0.747
RPL21 (peptide sequence: RQPAPPREAHFVR, peptide start residue: 130) (UniProt P46778)	0.476
SLC16A1 (peptide sequence: DLHDANTDLIGR, peptide start residue: 225) (UniProt P53985)	-0.123
PGGT1B (peptide sequence: QCSENVHIST, peptide start residue: 368) (UniProt P53609)	-0.0484
HNRNPA3 (peptide sequence: GEEGHDPKEPEQLRK, peptide start residue: 22) (UniProt P51991)	0.598

Part of the list above, as labelled records.
UniProt P48634 (peptide sequence: AVGTPGGGGGGAVPGISAMSR, peptide start residue: 1350)
  log2 fold change: -0.247
POLG (peptide sequence: RPQHLPGHPGWYR, peptide start residue: 562) (UniProt P54098)
  log2 fold change: -0.352

Remaining list, next part:

Target	log2 fold change
NDUFV1 (peptide sequence: AAYIYIR, peptide start residue: 153) (UniProt P49821)	-0.282
RFX2 (peptide sequence: VLVQAASSNPK, peptide start residue: 32) (UniProt P48378)	0.173
YARS (peptide sequence: KLASAAYPDPSK, peptide start residue: 335) (UniProt P54577)	0.196
IRAK1 (peptide sequence: ENADLEWTAVK, peptide start residue: 243) (UniProt P51617)	-0.433
DAP (peptide sequence: GDKDFPPAAAQVAHQKPHASMDK, peptide start residue: 66) (UniProt P51397)	-0.227
UniProt P54368 (peptide sequence: WCSDAPHPPLKIPGGR, peptide start residue: 66)	0.197
RAP1GAP (peptide sequence: SPHPDAGKLGDPACPEIK, peptide start residue: 631) (UniProt P47736)	0.707
GYG1 (peptide sequence: GALVLGSSLK, peptide start residue: 18) (UniProt P46976)	-0.405
CAPZA2 (peptide sequence: AYVKEHYPNGVCTVYGK, peptide start residue: 130) (UniProt P47755)	-0.423
KNTC1 (peptide sequence: QHLEMDHPK, peptide start residue: 821) (UniProt P50748)	1.02
CARS (peptide sequence: SYISFDILR, peptide start residue: 70) (UniProt P49589)	-0.359
PLXNA3 (peptide sequence: TASSPDSLR, peptide start residue: 1629) (UniProt P51805)	0.0942
HNMT (peptide sequence: AELGKDLQEPEFSAK, peptide start residue: 260) (UniProt P50135)	0.273
USP14 (peptide sequence: SSSSGHYVSWVKR, peptide start residue: 430) (UniProt P54578)	0.465
UniProt P48741 (peptide sequence: VEILANDQGNR, peptide start residue: 28)	0.119
ARRB1 (peptide sequence: EDLDVLGLTFR, peptide start residue: 66) (UniProt P49407)	-0.757
UniProt P49450 (peptide sequence: IRGLEEGLG, peptide start residue: 132)	-0.12
HCFC1 (peptide sequence: SPDGAHLTWEPPSVTSGK, peptide start residue: 1902) (UniProt P51610)	0.432
TUFM (peptide sequence: ARGITINAAHVEYSTAAR, peptide start residue: 106) (UniProt P49411)	0.65
UniProt P53990 (peptide sequence: RFEELKK, peptide start residue: 356)	0.147
